# Laboratory results as given in the M2OR odorant receptor database.
# Chains of the proteins cited; added tags and fusions are not shown. Lines headed by an entry give the natural chain unless they say otherwise; changes in a name come on top. A line that says so, or that is headed by a name, gives the form on record, which may keep a tag or linker.
# UniProt Q6IFN5: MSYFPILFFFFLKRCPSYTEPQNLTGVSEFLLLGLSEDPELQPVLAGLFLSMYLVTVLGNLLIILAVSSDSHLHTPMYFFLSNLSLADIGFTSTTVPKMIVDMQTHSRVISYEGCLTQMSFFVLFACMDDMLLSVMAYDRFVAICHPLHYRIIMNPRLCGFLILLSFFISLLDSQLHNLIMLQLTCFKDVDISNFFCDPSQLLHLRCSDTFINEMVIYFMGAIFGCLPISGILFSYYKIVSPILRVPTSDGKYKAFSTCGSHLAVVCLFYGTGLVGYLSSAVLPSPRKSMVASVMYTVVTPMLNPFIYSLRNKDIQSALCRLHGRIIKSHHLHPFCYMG
# OR7D4 H131Q, as listed by the source, stated change not applied: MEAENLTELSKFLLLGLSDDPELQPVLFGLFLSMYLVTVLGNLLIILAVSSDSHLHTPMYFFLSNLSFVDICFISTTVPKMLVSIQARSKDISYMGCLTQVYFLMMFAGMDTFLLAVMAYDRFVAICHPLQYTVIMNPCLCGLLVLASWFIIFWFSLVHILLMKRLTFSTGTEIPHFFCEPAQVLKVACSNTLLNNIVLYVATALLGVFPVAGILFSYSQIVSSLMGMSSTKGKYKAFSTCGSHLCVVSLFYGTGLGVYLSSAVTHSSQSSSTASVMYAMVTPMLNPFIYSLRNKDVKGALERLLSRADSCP
# OR7D4 S84N, as listed by the source, stated change not applied: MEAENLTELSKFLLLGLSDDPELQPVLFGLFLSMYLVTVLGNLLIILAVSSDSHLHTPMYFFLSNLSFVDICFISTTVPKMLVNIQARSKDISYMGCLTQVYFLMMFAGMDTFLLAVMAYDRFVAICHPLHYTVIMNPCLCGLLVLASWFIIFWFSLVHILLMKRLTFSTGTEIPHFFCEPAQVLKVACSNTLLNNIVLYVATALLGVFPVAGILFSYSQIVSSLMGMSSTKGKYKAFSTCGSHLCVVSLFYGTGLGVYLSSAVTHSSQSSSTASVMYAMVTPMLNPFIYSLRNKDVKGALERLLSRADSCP
# OR7D4 R88W, as listed by the source, stated change not applied: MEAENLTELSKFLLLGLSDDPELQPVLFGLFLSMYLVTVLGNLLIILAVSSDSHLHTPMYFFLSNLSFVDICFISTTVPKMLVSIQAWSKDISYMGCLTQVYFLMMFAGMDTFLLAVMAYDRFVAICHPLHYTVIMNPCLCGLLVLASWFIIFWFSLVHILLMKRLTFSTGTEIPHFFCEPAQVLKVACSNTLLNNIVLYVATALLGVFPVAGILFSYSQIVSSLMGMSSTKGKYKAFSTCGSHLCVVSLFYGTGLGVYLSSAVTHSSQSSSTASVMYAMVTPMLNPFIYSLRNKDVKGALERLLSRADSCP
# OR7G2, as listed by the source: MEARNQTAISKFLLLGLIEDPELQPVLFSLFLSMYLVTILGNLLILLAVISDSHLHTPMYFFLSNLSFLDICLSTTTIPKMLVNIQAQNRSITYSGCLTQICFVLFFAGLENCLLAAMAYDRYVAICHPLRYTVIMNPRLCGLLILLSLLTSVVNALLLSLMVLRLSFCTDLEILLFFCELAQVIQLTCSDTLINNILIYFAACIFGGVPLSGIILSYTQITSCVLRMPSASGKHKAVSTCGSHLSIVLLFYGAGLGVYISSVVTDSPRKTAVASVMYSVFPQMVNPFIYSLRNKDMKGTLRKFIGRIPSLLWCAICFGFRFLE
# OR7D4 D52G, as listed by the source, stated change not applied: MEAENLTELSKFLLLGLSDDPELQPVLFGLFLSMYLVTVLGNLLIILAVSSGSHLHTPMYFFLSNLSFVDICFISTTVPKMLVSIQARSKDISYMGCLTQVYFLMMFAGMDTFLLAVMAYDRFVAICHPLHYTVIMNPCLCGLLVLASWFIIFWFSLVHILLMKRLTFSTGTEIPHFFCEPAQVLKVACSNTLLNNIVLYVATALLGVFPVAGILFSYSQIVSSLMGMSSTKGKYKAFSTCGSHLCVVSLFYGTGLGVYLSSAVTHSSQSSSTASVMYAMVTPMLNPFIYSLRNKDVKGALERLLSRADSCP
# OR7D4 L162P, as listed by the source, stated change not applied: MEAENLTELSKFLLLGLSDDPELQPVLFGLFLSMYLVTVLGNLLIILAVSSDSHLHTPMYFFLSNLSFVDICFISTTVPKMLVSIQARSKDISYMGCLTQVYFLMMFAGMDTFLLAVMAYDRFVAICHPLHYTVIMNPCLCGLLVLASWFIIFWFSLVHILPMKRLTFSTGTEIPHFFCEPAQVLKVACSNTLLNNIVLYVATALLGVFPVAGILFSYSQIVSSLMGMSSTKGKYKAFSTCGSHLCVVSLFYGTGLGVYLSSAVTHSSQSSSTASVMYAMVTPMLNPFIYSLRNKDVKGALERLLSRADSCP
# OR7D4 L292M, as listed by the source, stated change not applied: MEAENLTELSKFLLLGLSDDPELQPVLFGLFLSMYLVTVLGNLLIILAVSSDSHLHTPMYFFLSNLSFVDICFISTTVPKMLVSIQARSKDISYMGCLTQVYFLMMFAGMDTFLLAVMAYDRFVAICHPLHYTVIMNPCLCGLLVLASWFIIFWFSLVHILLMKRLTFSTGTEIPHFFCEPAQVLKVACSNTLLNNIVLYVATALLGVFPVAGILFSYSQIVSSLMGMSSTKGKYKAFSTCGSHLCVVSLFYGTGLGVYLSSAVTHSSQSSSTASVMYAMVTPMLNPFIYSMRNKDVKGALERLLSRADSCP
# OR7D4 T133M, as listed by the source, stated change not applied: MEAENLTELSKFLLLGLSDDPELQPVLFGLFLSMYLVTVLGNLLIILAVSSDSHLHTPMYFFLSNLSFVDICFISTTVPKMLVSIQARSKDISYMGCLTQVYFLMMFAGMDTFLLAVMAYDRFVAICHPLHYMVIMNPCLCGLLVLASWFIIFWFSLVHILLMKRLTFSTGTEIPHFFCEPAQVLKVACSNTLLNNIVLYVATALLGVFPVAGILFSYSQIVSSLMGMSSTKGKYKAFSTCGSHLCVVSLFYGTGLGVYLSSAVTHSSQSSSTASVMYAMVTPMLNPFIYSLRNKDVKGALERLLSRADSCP
# OR7D4 M136I, as listed by the source, stated change not applied: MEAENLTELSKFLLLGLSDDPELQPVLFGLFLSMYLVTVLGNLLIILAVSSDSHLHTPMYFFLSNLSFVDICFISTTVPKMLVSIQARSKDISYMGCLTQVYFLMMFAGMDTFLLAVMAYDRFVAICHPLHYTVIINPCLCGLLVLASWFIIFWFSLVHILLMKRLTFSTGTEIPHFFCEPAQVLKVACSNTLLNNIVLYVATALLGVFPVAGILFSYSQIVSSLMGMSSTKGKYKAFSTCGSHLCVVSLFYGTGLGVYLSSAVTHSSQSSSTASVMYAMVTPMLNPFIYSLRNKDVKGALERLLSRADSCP
# OR7D4, as listed by the source: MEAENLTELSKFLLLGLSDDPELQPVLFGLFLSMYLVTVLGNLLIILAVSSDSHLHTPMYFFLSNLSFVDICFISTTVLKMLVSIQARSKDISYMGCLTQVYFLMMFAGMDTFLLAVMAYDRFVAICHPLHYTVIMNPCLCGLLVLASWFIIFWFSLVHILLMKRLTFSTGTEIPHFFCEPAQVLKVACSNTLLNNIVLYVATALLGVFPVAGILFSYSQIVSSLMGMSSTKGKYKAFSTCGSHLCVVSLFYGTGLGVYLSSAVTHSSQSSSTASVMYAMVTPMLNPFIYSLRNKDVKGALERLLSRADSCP
# OR7D4 S75C, as listed by the source, stated change not applied: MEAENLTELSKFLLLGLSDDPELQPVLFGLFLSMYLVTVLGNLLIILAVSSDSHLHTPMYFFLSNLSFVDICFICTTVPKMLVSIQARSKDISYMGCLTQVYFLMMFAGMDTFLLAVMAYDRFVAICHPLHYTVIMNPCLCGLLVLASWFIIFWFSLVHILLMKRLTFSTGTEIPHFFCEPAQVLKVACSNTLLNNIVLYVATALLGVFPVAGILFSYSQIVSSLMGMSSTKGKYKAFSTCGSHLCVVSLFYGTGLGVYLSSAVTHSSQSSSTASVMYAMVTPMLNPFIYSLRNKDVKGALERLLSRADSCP
# The entries are a selection whose mix differs from that of the whole data set. Calls are pooled over several reports, among them a noisy single-well screen. The list shows a part of the results.
# Legend:
# Details in all cases: stereoisomer not certain
# OR7D4 D52G = system: OR7D4 D52G
# Outline: (§1)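 Each receptor–molecule pair is labelled responsive or non-responsive (inactive) according to whether the original authors judged the measured signal statistically different from baseline. The data were taken from the main text and supplementary material of published papers and checked for typos and inconsistencies. Assay methods differed by source, with transient luciferase assays in mammalian cell lines being common.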
# OR7D4 H131Q = system: OR7D4 H131Q
# Outline: as §1
# OR7D4 L162P = system: OR7D4 L162P
# Outline: as §1
# OR7D4 L292M = system: OR7D4 L292M
# Outline: as §1
# OR7D4 M136I = system: OR7D4 M136I
# Outline: as §1
# OR7D4 R88W = system: OR7D4 R88W
# Outline: as §1
# OR7D4 S75C = system: OR7D4 S75C
# Outline: as §1
# OR7D4 S84N = system: OR7D4 S84N
# Outline: as §1
# OR7D4 T133M = system: OR7D4 T133M
# Outline: as §1
# OR7D4 [1] = system: OR7D4
# Outline: as §1
# OR7D4 [2] = system: T1, OR7D4; remark: listed apart in the source
# T1 sequence (whole entry): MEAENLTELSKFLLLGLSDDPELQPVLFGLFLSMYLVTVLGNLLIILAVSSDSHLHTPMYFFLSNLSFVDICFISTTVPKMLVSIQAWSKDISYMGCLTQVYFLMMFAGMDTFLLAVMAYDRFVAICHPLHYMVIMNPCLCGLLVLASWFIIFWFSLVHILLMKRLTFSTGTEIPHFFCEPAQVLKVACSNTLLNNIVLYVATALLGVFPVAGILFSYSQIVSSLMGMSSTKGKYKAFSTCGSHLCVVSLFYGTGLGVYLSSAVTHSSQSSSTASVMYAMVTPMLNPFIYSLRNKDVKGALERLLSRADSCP
# Outline: as §1
# OR7E24 (Homo sapiens) = OR7E24 (Homo sapiens) (UniProt Q6IFN5)
# Outline: as §1
# OR7G1 (Homo sapiens) = biological target: T2, OR7G1 (Homo sapiens) (UniProt Q8NGA0)
# T2 sequence (whole entry): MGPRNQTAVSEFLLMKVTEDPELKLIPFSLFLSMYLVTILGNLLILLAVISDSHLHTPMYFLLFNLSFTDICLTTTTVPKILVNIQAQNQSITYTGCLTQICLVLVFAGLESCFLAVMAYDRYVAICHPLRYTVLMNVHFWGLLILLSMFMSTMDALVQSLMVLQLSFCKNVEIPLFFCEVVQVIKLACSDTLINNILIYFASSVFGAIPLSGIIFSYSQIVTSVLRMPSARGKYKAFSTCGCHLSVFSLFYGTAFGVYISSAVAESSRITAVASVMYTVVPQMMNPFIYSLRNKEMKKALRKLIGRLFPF
# Outline: as §1
# OR7G2 (Homo sapiens) = biological target: T3, OR7G2 (Homo sapiens) (UniProt Q8NG99)
# T3 sequence (whole entry): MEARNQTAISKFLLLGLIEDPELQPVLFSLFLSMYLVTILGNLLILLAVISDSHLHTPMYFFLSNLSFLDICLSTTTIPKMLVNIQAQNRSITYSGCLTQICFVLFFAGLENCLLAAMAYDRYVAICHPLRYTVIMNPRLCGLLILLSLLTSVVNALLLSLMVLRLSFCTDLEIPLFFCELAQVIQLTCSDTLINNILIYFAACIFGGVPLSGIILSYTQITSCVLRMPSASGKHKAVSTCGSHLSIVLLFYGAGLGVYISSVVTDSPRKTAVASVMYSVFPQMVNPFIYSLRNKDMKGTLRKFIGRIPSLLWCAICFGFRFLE
# Outline: as §1
# OR7G2 [3] = system: T4, OR7G2
# T4 sequence (whole entry): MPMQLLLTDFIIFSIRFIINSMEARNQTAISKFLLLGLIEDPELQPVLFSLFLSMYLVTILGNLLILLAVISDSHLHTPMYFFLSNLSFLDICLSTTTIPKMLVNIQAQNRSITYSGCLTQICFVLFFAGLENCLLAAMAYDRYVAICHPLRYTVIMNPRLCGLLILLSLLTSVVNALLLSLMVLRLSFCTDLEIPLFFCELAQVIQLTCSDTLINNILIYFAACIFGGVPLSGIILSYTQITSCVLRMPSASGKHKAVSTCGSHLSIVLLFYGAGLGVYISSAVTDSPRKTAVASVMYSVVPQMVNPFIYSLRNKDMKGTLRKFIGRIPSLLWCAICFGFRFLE
# Outline: as §1
# OR7G3 (Homo sapiens) = biological target: T5, OR7G3 (Homo sapiens) (UniProt Q8NG95)
# T5 sequence (whole entry): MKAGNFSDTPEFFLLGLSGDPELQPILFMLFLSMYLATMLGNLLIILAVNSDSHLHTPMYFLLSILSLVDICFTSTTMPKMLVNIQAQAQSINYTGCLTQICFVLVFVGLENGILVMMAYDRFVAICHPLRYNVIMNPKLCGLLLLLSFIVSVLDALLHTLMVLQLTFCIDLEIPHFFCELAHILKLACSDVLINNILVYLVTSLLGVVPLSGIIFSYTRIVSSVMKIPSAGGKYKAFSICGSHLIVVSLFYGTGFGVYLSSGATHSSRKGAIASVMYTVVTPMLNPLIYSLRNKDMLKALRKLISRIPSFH
# Outline: as §1
# OR7G2 [4] = system: OR7G2; remark: listed apart in the source
# Outline: as §1
# OR7G2 [5] = system: OR7G2; remark: listed apart in the source
# Outline: as §1
# OR7G2 [6] = system: OR7G2; remark: listed apart in the source
# Outline: as §1
# OR7D4 [7] = system: OR7D4; remark: listed apart in the source
# Outline: as §1
# 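Also: active if original authors judged signal statistically different from baseline.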
smiles,measurement,setting,value
CC12C=CCC1C1CCC3CC(=O)CCC3(C)C1CC2 (configuration not stated),odorant receptor agonist call,OR7D4 D52G,inactive
same,odorant receptor agonist call,OR7D4 H131Q,active
same,odorant receptor agonist call,OR7D4 L162P,inactive
same,odorant receptor agonist call,OR7D4 L292M,active
same,odorant receptor agonist call,OR7D4 M136I,inactive
same,odorant receptor agonist call,OR7D4 R88W,active
same,odorant receptor agonist call,OR7D4 S75C,inactive
same,odorant receptor agonist call,OR7D4 S84N,active
same,odorant receptor agonist call,OR7D4 T133M,active
same,odorant receptor agonist call,OR7D4 [1],active
same,odorant receptor agonist call,OR7D4 [2],inactive
same,odorant receptor agonist call,OR7E24 (Homo sapiens),inactive
same,odorant receptor agonist call,OR7G1 (Homo sapiens),inactive
same,odorant receptor agonist call,OR7G2 (Homo sapiens),inactive
same,odorant receptor agonist call,OR7G2 [3],inactive
same,odorant receptor agonist call,OR7G3 (Homo sapiens),inactive
CC(C)C=O,odorant receptor agonist call,OR7D4 [2],inactive
same,odorant receptor agonist call,OR7G1 (Homo sapiens),inactive
same,odorant receptor agonist call,OR7G2 (Homo sapiens),inactive
same,odorant receptor agonist call,OR7G2 [3],inactive
same,odorant receptor agonist call,OR7G3 (Homo sapiens),inactive
CC=Cc1ccc(O)c(OC)c1,odorant receptor agonist call,OR7D4 [2],inactive
same,odorant receptor agonist call,OR7G1 (Homo sapiens),inactive
same,odorant receptor agonist call,OR7G2 (Homo sapiens),inactive
same,odorant receptor agonist call,OR7G2 [3],inactive
same,odorant receptor agonist call,OR7G3 (Homo sapiens),inactive
CCCCO,odorant receptor agonist call,OR7D4 [2],inactive
same,odorant receptor agonist call,OR7G1 (Homo sapiens),inactive
same,odorant receptor agonist call,OR7G2 (Homo sapiens),inactive
same,odorant receptor agonist call,OR7G2 [3],inactive
same,odorant receptor agonist call,OR7G3 (Homo sapiens),inactive
COc1cc(C=O)ccc1O,odorant receptor agonist call,OR7D4 [2],inactive
same,odorant receptor agonist call,OR7G1 (Homo sapiens),inactive
same,odorant receptor agonist call,OR7G2 (Homo sapiens),inactive
same,odorant receptor agonist call,OR7G2 [3],inactive
same,odorant receptor agonist call,OR7G3 (Homo sapiens),inactive
CCCC(=O)O,odorant receptor agonist call,OR7D4 [2],inactive
same,odorant receptor agonist call,OR7G1 (Homo sapiens),inactive
same,odorant receptor agonist call,OR7G2 (Homo sapiens),inactive
same,odorant receptor agonist call,OR7G2 [4],inactive
same,odorant receptor agonist call,OR7G2 [5],inactive
same,odorant receptor agonist call,OR7G2 [6],active
same,odorant receptor agonist call,OR7G2 [3],inactive
same,odorant receptor agonist call,OR7G3 (Homo sapiens),inactive
CC12CCC(CC1)C(C)(C)O2,odorant receptor agonist call,OR7D4 [2],inactive
same,odorant receptor agonist call,OR7G1 (Homo sapiens),inactive
same,odorant receptor agonist call,OR7G2 (Homo sapiens),inactive
same,odorant receptor agonist call,OR7G2 [3],inactive
same,odorant receptor agonist call,OR7G3 (Homo sapiens),inactive
C=CCc1ccc(O)c(OC)c1,odorant receptor agonist call,OR7D4 [2],inactive
CC(C)CC(=O)O,odorant receptor agonist call,OR7D4 [2],inactive
same,odorant receptor agonist call,OR7G1 (Homo sapiens),inactive
same,odorant receptor agonist call,OR7G2 (Homo sapiens),inactive
same,odorant receptor agonist call,OR7G2 [3],inactive
same,odorant receptor agonist call,OR7G3 (Homo sapiens),inactive
CC(=O)C(C)=O,odorant receptor agonist call,OR7D4 [2],inactive
same,odorant receptor agonist call,OR7G1 (Homo sapiens),inactive
same,odorant receptor agonist call,OR7G2 (Homo sapiens),inactive
same,odorant receptor agonist call,OR7G2 [3],inactive
same,odorant receptor agonist call,OR7G3 (Homo sapiens),inactive
CCCCCCCC=O,odorant receptor agonist call,OR7D4 [2],inactive
same,odorant receptor agonist call,OR7G1 (Homo sapiens),inactive
same,odorant receptor agonist call,OR7G2 (Homo sapiens),inactive
same,odorant receptor agonist call,OR7G2 [3],inactive
same,odorant receptor agonist call,OR7G3 (Homo sapiens),inactive
CCCCCCCCC=O,odorant receptor agonist call,OR7D4 [2],inactive
CC12C=CCC1C1CCC3=CC(=O)CCC3(C)C1CC2 (configuration not stated),odorant receptor agonist call,OR7D4 R88W,active
same,odorant receptor agonist call,OR7D4 S84N,active
same,odorant receptor agonist call,OR7D4 T133M,active
same,odorant receptor agonist call,OR7D4 [7],inactive
same,odorant receptor agonist call,OR7D4 [2],inactive
same,odorant receptor agonist call,OR7E24 (Homo sapiens),inactive
same,odorant receptor agonist call,OR7G1 (Homo sapiens),inactive
same,odorant receptor agonist call,OR7G2 (Homo sapiens),inactive
same,odorant receptor agonist call,OR7G2 [3],inactive
same,odorant receptor agonist call,OR7G3 (Homo sapiens),inactive
COC(=O)c1ccccc1O,odorant receptor agonist call,OR7D4 [2],inactive
same,odorant receptor agonist call,OR7G1 (Homo sapiens),inactive
same,odorant receptor agonist call,OR7G2 (Homo sapiens),inactive
same,odorant receptor agonist call,OR7G2 [3],inactive
same,odorant receptor agonist call,OR7G3 (Homo sapiens),inactive
C=C(C)C1CC=C(C)C(=O)C1 (configuration not stated),odorant receptor agonist call,OR7D4 [2],inactive
C=CCc1ccc(OC)c(OC)c1,odorant receptor agonist call,OR7D4 [2],inactive
same,odorant receptor agonist call,OR7G1 (Homo sapiens),inactive
same,odorant receptor agonist call,OR7G2 (Homo sapiens),inactive
same,odorant receptor agonist call,OR7G2 [3],inactive
same,odorant receptor agonist call,OR7G3 (Homo sapiens),inactive
COc1cc(C)ccc1O,odorant receptor agonist call,OR7D4 [2],inactive
same,odorant receptor agonist call,OR7G1 (Homo sapiens),inactive
same,odorant receptor agonist call,OR7G2 (Homo sapiens),inactive
same,odorant receptor agonist call,OR7G2 [3],inactive
same,odorant receptor agonist call,OR7G3 (Homo sapiens),inactive
C=CCSCC=C,odorant receptor agonist call,OR7D4 [2],inactive
same,odorant receptor agonist call,OR7G1 (Homo sapiens),inactive
same,odorant receptor agonist call,OR7G2 (Homo sapiens),inactive
same,odorant receptor agonist call,OR7G2 [3],inactive
same,odorant receptor agonist call,OR7G3 (Homo sapiens),inactive
CC(=O)OCC=C(C)CCC=C(C)C,odorant receptor agonist call,OR7D4 [2],inactive
same,odorant receptor agonist call,OR7G1 (Homo sapiens),inactive
same,odorant receptor agonist call,OR7G2 (Homo sapiens),inactive
same,odorant receptor agonist call,OR7G2 [3],inactive
same,odorant receptor agonist call,OR7G3 (Homo sapiens),inactive
CCC1(O)C2(C)CCC(C2)C1(C)C (configuration not stated),odorant receptor agonist call,OR7D4 [2],inactive
same,odorant receptor agonist call,OR7G1 (Homo sapiens),inactive
same,odorant receptor agonist call,OR7G2 (Homo sapiens),inactive
same,odorant receptor agonist call,OR7G2 [3],inactive
same,odorant receptor agonist call,OR7G3 (Homo sapiens),inactive

# Already shown: entries from further up.
smiles,measurement,setting,value
COc1cc(C)ccc1O,odorant receptor agonist call,OR7G2 (Homo sapiens),inactive
same,odorant receptor agonist call,OR7G2 [3],inactive

# Part of the list above, with tabs:
smiles	measurement	setting	value
CCCCCCCC=O	odorant receptor agonist call	OR7D4 [2]	inactive
same	odorant receptor agonist call	OR7G1 (Homo sapiens)	inactive
same	odorant receptor agonist call	OR7G2 (Homo sapiens)	inactive
same	odorant receptor agonist call	OR7G2 [3]	inactive
same	odorant receptor agonist call	OR7G3 (Homo sapiens)	inactive
